No constants are given. Whether binding was seen depends on the method and setting. In cells and extracts the contact can be indirect. Some results given as binding are weak or reduced against the parent protein; the word gives no strength.
B1: GluRδ2 (receptor, UniProt Q61625 24-1007)
chain: DSIIHIGAIFDESAKKDDEVFRTAVGDLNQNEEILQTEKITFSVTFVDGNNPFQAVQEACELMNQGILALVSSIGCTSAGSLQSLADAMHIPHLFIQRSTAGTPRSGCGLTRSNRNDDYTLSVRPPVYLNEVILRVVTEYAWQKFIIFYDSEYDIRGIQEFLDKVSQQGMDVALQKVENNINKMITTLFDTMRIEELNRYRDTLRRAILVMNPATAKSFISEVVETNLVAFDCHWIIINEEINDVDVQELVRRSIGRLTIIRQTFPVPQNISQRCFRGNHRISSSLCDPKDPFAQNMEISNLYIYDTVLLLANAFHKKLEDRKWHSMASLSCIRKNSKPWQGGRSMLETIKKGGVNGLTGDLEFGENGGNPNVHFEILGTNYGEELGRGVRKLGCWNPVTGLNGSLTDKKLENNMRGVVLRVVTVLEEPFVMVSENVLGKPKKYQGFSIDVLDALSNYLGFNYEIYVAPDHKYGSPQEDGTWNGLVGELVFKRADIGISALTITPDRENVVDFTTRYMDYSVGVLLRRAEKTVDMFACLAPFDLSLWACIAGTVLLVGLLVYLLNWLNPPRLQMGSMTSTTLYNSMWFVYGSFVQQGGEVPYTTLATRMMMGAWWLFALIVISSYTANLAAFLTITRIESSIQSLQDLSKQTDIPYGTVLDSAVYQHVRMKGLNPFERDSMYSQMWRMINRSNGSENNVLESQAGIQKVKYGNYAFVWDAAVLEYVAINDPDCSFYTVGNTVADRGYGIALQHGSPYRDVFSQRILELQQSGDMDILKHKWWPKNGQCDLYSSVDAKQKGGALDIKSLAGVFCILAAGIVLSCLIAVLETWWSRRKGSRVPSKEDDKEIDLEHLHRRVNSLCTDDDSPHKQFSTSSIDLTPLDIDTLPTRQALEQISDFRNTHITTTTFIPEQIQTLSRTLSAKAASGFAFGSVPEHRTGPFRHRAPNGGFFRSPIKTMSSIPYQPTPTLGLNLGNDPDRGTSI
B2: transient receptor potential channel 3 (TRPC3) (protein, UniProt Q9QZC1 1-910)
chain: MSTKVKKCREPARVTLPAPEEEEDGEAEGGESQRRRRGWRGVNGGLEPPCPRAPPSPGPDASSEGSPSRWRTAGMRDKGRRQAVRGPAFMFGARGPSLTAEEERFLDAAEYGNIPVVRKMLEESRTLNVNCVDYMGQNALQLAVGNEHLEVTELLLKKENLARIGDALLLAISKGYVRIVEAILGHPGFAASRRLTLSPCEQELRDDDFYAYDEDGTRFSPDITPIILAAHCHKYEVVHLLLLKGARIERPHDYFCRCSDCAEKQRLDAFSHSRSRINAYKGLASPAYLSLSSEDPVLTALELSNELAKLANIEKEFKNDYRKLSMQCKDFVVGVLDLCRDSEEVEAILNGDLESAEPLERHGHKASLSRVKLAIKYEVKKFVAHPNCQQQLLTIWYENLSGLREQTIAIKCLVVLVVALGLPFLAIGYWIAPCSRLGKILRSPFMKFVAHAASFIIFLGLLVFNASDRFEGITTLPNITVIDYPKQIFRVKTTQFTWTEMLIMVWVLGMMWSECKELWLEGPREYIVQLWNVLDFGMLSIFIAAFTARFLAFLQATKAQQYVDSHVQESDLSEVTLPPEVQYFTYARDKWLPSDPQIISEGLYAIAVVLSFSRIAYILPANESFGPLQISLGRTVKDIFKFMVLFIMVFLAFMIGMFILYSYYLGAKVNPAFTTVEESFKTLFWSIFGLSEVTSVVLKYDHKFIENIGYVLYGIYNVTMVVVLLNMLIAMINSSYQEIEDDSDVEWKFARSKLWLSYFDDGKTLPPPFSLVPSPKSFVYFIMRITNFSKCRRRRLQKDLELGMGNSKSRLNLFTQSNSRVFESHSFNSILNQPTRYQQIMKRLIKRYVLKAQVDKENDEVNEGELKEIKQDISSLRYELLEDKSQATEELAILIHKLSEKLNPSVLRCE

By UniProt entry, the sequences of proteins in these tests, tags left out. Where a name states a change or a piece, a line headed by the entry shows the natural chain unless it says otherwise. Chains listed by the source or under a name are the forms on record and can include a tag or linker.
mGluR1α-P/E (rat mGluR1α carrying the point mutation P1153E in the Homer binding domain) (P23385, form named): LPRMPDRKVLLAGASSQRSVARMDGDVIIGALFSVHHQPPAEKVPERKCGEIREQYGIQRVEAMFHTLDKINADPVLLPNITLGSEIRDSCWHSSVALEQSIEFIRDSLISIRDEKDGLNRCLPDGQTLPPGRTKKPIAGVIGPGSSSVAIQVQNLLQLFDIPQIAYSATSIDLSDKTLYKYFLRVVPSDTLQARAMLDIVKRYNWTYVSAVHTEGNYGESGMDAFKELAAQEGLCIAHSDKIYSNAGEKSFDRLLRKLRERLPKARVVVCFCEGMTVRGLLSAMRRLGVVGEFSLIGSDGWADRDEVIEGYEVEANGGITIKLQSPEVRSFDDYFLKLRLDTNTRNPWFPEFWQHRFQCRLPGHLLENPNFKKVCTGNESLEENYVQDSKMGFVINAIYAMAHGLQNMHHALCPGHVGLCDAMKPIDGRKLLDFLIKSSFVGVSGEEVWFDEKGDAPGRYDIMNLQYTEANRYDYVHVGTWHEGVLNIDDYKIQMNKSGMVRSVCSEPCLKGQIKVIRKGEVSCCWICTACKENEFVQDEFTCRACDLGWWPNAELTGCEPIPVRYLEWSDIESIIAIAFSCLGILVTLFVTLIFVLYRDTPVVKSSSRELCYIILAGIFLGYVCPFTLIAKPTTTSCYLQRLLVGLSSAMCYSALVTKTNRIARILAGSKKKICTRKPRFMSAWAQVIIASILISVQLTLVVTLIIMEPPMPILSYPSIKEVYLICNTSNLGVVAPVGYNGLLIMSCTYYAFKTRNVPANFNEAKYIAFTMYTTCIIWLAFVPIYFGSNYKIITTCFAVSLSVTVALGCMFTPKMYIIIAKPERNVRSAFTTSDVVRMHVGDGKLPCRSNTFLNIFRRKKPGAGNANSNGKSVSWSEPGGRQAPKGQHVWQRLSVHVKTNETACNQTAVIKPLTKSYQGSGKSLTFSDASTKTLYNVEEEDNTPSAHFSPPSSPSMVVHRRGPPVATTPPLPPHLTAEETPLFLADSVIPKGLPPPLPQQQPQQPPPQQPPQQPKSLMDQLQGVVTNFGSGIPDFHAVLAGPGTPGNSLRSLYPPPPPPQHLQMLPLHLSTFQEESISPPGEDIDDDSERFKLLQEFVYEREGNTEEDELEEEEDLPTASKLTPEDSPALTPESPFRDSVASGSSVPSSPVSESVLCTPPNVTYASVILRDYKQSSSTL

Molecular target: mGluR1α-P/E (rat mGluR1α carrying the point mutation P1153E in the Homer binding domain) (rat) (UniProt P23385)
Assay: co-IP; cerebella of mGluR1a-P/E-rescue mice homogenised in 50 mM Tris-HCl pH 7.5, 150 mM NaCl, 0.5% NP-40 with protease and phosphatase inhibitors; supernatant incubated at 4°C overnight with a rat monoclonal antibody against the mGluR1 N-terminus or rat IgG coupled to Sepharose beads; bound proteins immunoblotted for Homer, GluRδ2 and TRPC3

Binder | binding
B1 | binds
B2 | binds
